Consider 34 compounds from the supplement of paper PMC4635364.

Structures can show the parent of a compound that is named as a salt. Some of the results follow. Repeats in this data set agree poorly, so a single value says little.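 Cells: ReNCell VM human fetal ventral-midbrain neural progenitors, differentiated mitogen-free. Blinded raters compared doublecortin-stained (early neurons) or tyrosine hydroxylase-stained (dopaminergic neurons) images with untreated wells, where 0 means no change. After repeats and both raters were averaged, compounds scoring 2 or above became hits for retesting.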

Assay [1] relates to ReNCell VM. The assay can be described thus: neuronal differentiation score (DCX+ cell fraction vs untreated, manual image score) (score (-3 to 3)); higher = more neuronal differentiation. The settings on record: 2 uM, 2 weeks.
Assay [2] concerns ReNCell VM. Nature of the assay: dopaminergic neuron differentiation score (TH+ cell fraction vs untreated, manual image score) (score (0 to 3)); higher = more TH+ dopaminergic neuron differentiation. The following applies: 2 uM, 4 weeks, BDNF 10 ng/ml + GDNF 10 ng/ml.

For `Cl/C(=C\n1cncn1)c1ccc(Cl)cc1Cl` [Loreclezole hydrochloride], in the assay with ReNCell VM [1] (library: Tocriscreen), the neuronal differentiation score is inactive: 0. Further, in the assay with ReNCell VM [2] (library: Tocriscreen), the “dopaminergic neuron differentiation score” value was inactive: 0.

On to `COc1cc2c(cc1OC)C(=O)Cc1ccc3c(c1CN(C)CC2)OCO3` [cryptopine], for which the neuronal differentiation score in the assay on ReNCell VM [1] (library: Natural) was inactive: 1. Also, in the assay on ReNCell VM [2] (library: Natural), the “dopaminergic neuron differentiation score” value was inactive: 0.

Take `O=c1ccc2c(OCCCCc3ccccc3)c3ccoc3cc2o1` [Psora-4]: in the assay with ReNCell VM [1] (library: LOPAC), the neuronal differentiation score is inactive: 0. Also, the “dopaminergic neuron differentiation score” value with ReNCell VM [2] (library: LOPAC) was inactive: 0.

As for `CC(C)NCC(O)COc1ccc(COCCOC(C)C)cc1` (stereo not drawn), the neuronal differentiation score with ReNCell VM [1] (library: Spectrum) was inactive: 1. For the same compound, the “dopaminergic neuron differentiation score” value in the assay with ReNCell VM [2] (library: Spectrum) is inactive: 0.

Turning to `N[C@H](C(=O)O)c1ccc(C(=O)O)c(O)c1` [(S)-4-Carboxy-3-hydroxyphenylglycine], the neuronal differentiation score with ReNCell VM [1] (library: Tocriscreen) is inactive: 0. Moreover, in the assay on ReNCell VM [2] (library: Tocriscreen), the “dopaminergic neuron differentiation score” value is inactive: 0.

Take `C[C@@H]1C(=O)C[C@H]2C(C)(C)CCC[C@]2(C)[C@@]1(O)CCc1ccoc1` [hispanolone]: the neuronal differentiation score in the assay with ReNCell VM [1] (library: Natural) is inactive: 0. In the assay on ReNCell VM [2] (library: Natural), the “dopaminergic neuron differentiation score” value is inactive: 0.

`CC(NC1CSCC1O)=C1C(=O)CC2C1C2(C)C` (stereo not drawn): the neuronal differentiation score with ReNCell VM [1] (library: Natural) is inactive: 0. Also, the “dopaminergic neuron differentiation score” value with ReNCell VM [2] (library: Natural) was inactive: 0.

On to `Nc1ccc(S(=O)(=O)NC(=O)c2ccccc2)cc1` [Sulfabenzamide], for which the neuronal differentiation score in the assay with ReNCell VM [1] (library: Prestwick) was inactive: 0. For the same compound, the “dopaminergic neuron differentiation score” value in the assay with ReNCell VM [2] (library: Prestwick) is inactive: 0.

For `CCCCCCN(CCCCCC)C(=O)Cc1c(-c2ccc(F)cc2)[nH]c2ccccc12` [N,N-Dihexyl-2-(4-fluorophenyl)indole-3-acetamide], the neuronal differentiation score with ReNCell VM [1] (library: LOPAC) was inactive: 0. The “dopaminergic neuron differentiation score” value in the assay on ReNCell VM [2] (library: LOPAC) is inactive: 0.

Regarding `COc1ccc(-c2oc3ccccc3c(=O)c2OC)cc1`, the neuronal differentiation score in the assay with ReNCell VM [1] (library: Spectrum) was inactive: 0. In addition, the “dopaminergic neuron differentiation score” value in the assay on ReNCell VM [2] (library: Spectrum) was inactive: 0.

For `O=C(NCc1ccccc1)OCCO`, in the assay with ReNCell VM [1] (library: Spectrum), the neuronal differentiation score was inactive: 0. For the same compound, the “dopaminergic neuron differentiation score” value with ReNCell VM [2] (library: Spectrum) is inactive: 0.

Regarding `Cc1cc(C(=O)O)sc1C(N)C(=O)O` (stereo not drawn), the neuronal differentiation score with ReNCell VM [1] (library: Tocriscreen) is inactive: 0. For the same compound, the “dopaminergic neuron differentiation score” value with ReNCell VM [2] (library: Tocriscreen) is inactive: 0.

As for `CN1[C@@H](CC(=O)c2ccccc2)CCC[C@H]1C[C@H](O)c1ccccc1` [Lobeline hydrochloride], in the assay with ReNCell VM [1] (library: Tocriscreen), the neuronal differentiation score is inactive: 0. In addition, in the assay with ReNCell VM [2] (library: Tocriscreen), the “dopaminergic neuron differentiation score” value was inactive: 0.

Turning to `O=c1[nH]cnc2nc[nH]c12`, the neuronal differentiation score in the assay with ReNCell VM [1] (library: Spectrum) was inactive: 0. Further, the “dopaminergic neuron differentiation score” value in the assay on ReNCell VM [2] (library: Spectrum) is inactive: 0.

`Cc1ccc(N(CC2=NCCN2)c2cccc(O)c2)cc1`: the neuronal differentiation score with ReNCell VM [1] (library: Spectrum) was inactive: 0. In the assay with ReNCell VM [2] (library: Spectrum), the “dopaminergic neuron differentiation score” value is inactive: 0.

Turning to `O.O.O.O.O=C([O-])CC(O)(CC(=O)[O-])C(=O)[O-].[Li+].[Li+].[Li+]`, the neuronal differentiation score in the assay with ReNCell VM [1] (library: Spectrum) was inactive: 0. In the assay on ReNCell VM [2] (library: Spectrum), the “dopaminergic neuron differentiation score” value is inactive: 1.

`C[C@@H](CN1CCC(Cc2ccccc2)CC1)[C@@H](O)c1ccc(O)cc1` [Ro 25-6981 maleate]: the neuronal differentiation score with ReNCell VM [1] (library: Tocriscreen) is inactive: 0. Also, in the assay on ReNCell VM [2] (library: Tocriscreen), the “dopaminergic neuron differentiation score” value is inactive: 0.

For `C=C1CC[C@H](O)C/C1=C/C=C1\CCC[C@]2(C)[C@@H]([C@H](C)CCCC(C)C)CC[C@@H]12`, in the assay on ReNCell VM [1] (library: Spectrum), the neuronal differentiation score was inactive: 0. Moreover, the “dopaminergic neuron differentiation score” value in the assay on ReNCell VM [2] (library: Spectrum) is inactive: 0.

On to `CCCCCCCCCCCCCCCCn1cc[n+](Cc2ccccc2)c1C`, for which the neuronal differentiation score with ReNCell VM [1] (library: Tocriscreen) is inactive: 0. Besides, in the assay on ReNCell VM [2] (library: Tocriscreen), the “dopaminergic neuron differentiation score” value is inactive: 0.

Turning to `CCCc1nc2c(C)cc(-c3nc4ccccc4n3C)cc2n1Cc1ccc(-c2ccccc2C(=O)O)cc1` [Telmisartan], in the assay with ReNCell VM [1] (library: Prestwick), the neuronal differentiation score is inactive: 0. Besides, in the assay on ReNCell VM [2] (library: Prestwick), the “dopaminergic neuron differentiation score” value was inactive: 0.

Consider `CC(C)(C)C(=O)OCOC(=O)[C@@H]1N2C(=O)[C@@H](NC(=O)[C@H](N)c3ccccc3)[C@H]2SC1(C)C` [Pivampicillin], for which the neuronal differentiation score in the assay with ReNCell VM [1] (library: Prestwick) is inactive: 0. In the assay on ReNCell VM [2] (library: Prestwick), the “dopaminergic neuron differentiation score” value was inactive: 0.

For `COc1ccc(CN(CCN(C)C)c2ccccn2)cc1` [Mepyramine maleate], the neuronal differentiation score with ReNCell VM [1] (library: Tocriscreen) was inactive: 0. Moreover, in the assay on ReNCell VM [2] (library: Tocriscreen), the “dopaminergic neuron differentiation score” value was inactive: 0.

Take `COC(=O)C1=C(C)NC(C)=C(C(=O)OC(C)C)C1c1cccc2nonc12` (stereo not drawn): the neuronal differentiation score in the assay with ReNCell VM [1] (library: Spectrum) is inactive: 0. Moreover, the “dopaminergic neuron differentiation score” value in the assay on ReNCell VM [2] (library: Spectrum) is inactive: 0.

With `CCN(CC)C(=O)c1ccc(O)c(OC)c1` [Ethamivan], in the assay on ReNCell VM [1] (library: Prestwick), the neuronal differentiation score is inactive: 0. Further, the “dopaminergic neuron differentiation score” value in the assay with ReNCell VM [2] (library: Prestwick) is inactive: 0.

For `COc1cc2c(cc1O)CC[C@@H]1[C@@H]2CC[C@]2(C)[C@@H](O)CC[C@@H]12` [2-methoxyestradiol], in the assay with ReNCell VM [1] (library: LOPAC), the neuronal differentiation score is inactive: 0. The “dopaminergic neuron differentiation score” value with ReNCell VM [2] (library: LOPAC) is inactive: 1.

Consider `CC(=O)O[C@H]1C[C@@]2(C)[C@@H](C[C@@H](O)[C@H]3[C@@]4(C)CC[C@@H](O)[C@@H](C)[C@@H]4CC[C@@]32C)/C1=C(\CCC=C(C)C)C(=O)O` [Fusidic acid sodium], for which, in the assay on ReNCell VM [1] (library: LOPAC), the neuronal differentiation score was inactive: 0. Further, the “dopaminergic neuron differentiation score” value in the assay on ReNCell VM [2] (library: LOPAC) was inactive: 0.

As to `CC(C(=O)O)c1ccc(CC2CCCC2=O)cc1` (stereo not drawn) [loxoprofen], the neuronal differentiation score in the assay on ReNCell VM [1] (library: LOPAC) was inactive: 0. In addition, the “dopaminergic neuron differentiation score” value in the assay with ReNCell VM [2] (library: LOPAC) was inactive: 0.

`Clc1ccc(COC(Cn2ccnc2)c2ccc(Cl)cc2Cl)cc1` (stereo not drawn): in the assay on ReNCell VM [1] (library: Spectrum), the neuronal differentiation score is inactive: 0. Moreover, the “dopaminergic neuron differentiation score” value in the assay on ReNCell VM [2] (library: Spectrum) was inactive: 0.

Take `OC[C@H]1O[C@@H](O[C@H]2[C@H](O)[C@@H](O)C(O)O[C@@H]2CO)[C@H](O)[C@@H](O)[C@H]1O` (stereo partly drawn): the neuronal differentiation score in the assay on ReNCell VM [1] (library: Spectrum) was inactive: 0. In addition, the “dopaminergic neuron differentiation score” value in the assay on ReNCell VM [2] (library: Spectrum) was inactive: 0.

Regarding `N[C@H]1CCN(O)C1=O`, the neuronal differentiation score in the assay with ReNCell VM [1] (library: Tocriscreen) is inactive: 0. For the same compound, in the assay on ReNCell VM [2] (library: Tocriscreen), the “dopaminergic neuron differentiation score” value is inactive: 0.

Take `Nc1ncnc2c1ncn2[C@@H]1O[C@H](CO)[C@@H](O)[C@@H]1O`: the neuronal differentiation score with ReNCell VM [1] (library: Spectrum) was inactive: 0. Moreover, the “dopaminergic neuron differentiation score” value in the assay on ReNCell VM [2] (library: Spectrum) was inactive: 0.

Turning to `CC(=O)O[C@]1(C(C)=O)CC[C@H]2[C@@H]3C=C(Cl)C4=CC(=O)[C@@H]5C[C@@H]5[C@]4(C)[C@H]3CC[C@@]21C`, the neuronal differentiation score with ReNCell VM [1] (library: Spectrum) is inactive: 0. For the same compound, the “dopaminergic neuron differentiation score” value in the assay with ReNCell VM [2] (library: Spectrum) was inactive: 0.

Consider `Cc1c(C)c2c(c(C)c1O)CCC(C)(C(=O)O)O2` (stereo not drawn), for which the neuronal differentiation score with ReNCell VM [1] (library: Spectrum) is inactive: 0. In the assay with ReNCell VM [2] (library: Spectrum), the “dopaminergic neuron differentiation score” value was inactive: 0.

In the case of `C#CCn1c(=O)c2c(ncn2C)n(C)c1=O` [3,7-Dimethyl-1-propargylxanthine], the neuronal differentiation score in the assay with ReNCell VM [1] (library: LOPAC) is inactive: 0. In the assay with ReNCell VM [2] (library: LOPAC), the “dopaminergic neuron differentiation score” value was inactive: 0.
